Assay results reported in patent US20170088620A1.
Results are given in words; binding and its absence hold for the method and conditions named. In cells and extracts the contact can be indirect. Some entries that bind do so weakly or less than the wild type. Tags and fused reporters may be left off the sequences shown.

Biological target: T1, huASGR-1 (64-291) ECD with 6xHis tag (human) (UniProt P07306)
T1 sequence: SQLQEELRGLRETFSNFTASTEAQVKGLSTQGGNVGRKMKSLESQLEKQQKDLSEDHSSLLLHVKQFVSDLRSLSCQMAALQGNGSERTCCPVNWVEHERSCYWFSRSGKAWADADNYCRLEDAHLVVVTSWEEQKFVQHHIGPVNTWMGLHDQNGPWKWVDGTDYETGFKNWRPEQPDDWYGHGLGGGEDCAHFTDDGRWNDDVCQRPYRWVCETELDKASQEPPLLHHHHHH
Assay: co-purification of the untagged ASGR-2 with His-tagged ASGR-1 on Ni-Excel resin and size exclusion chromatography

B1: huASGR-2 (61-287) ECD without 6xHis tag (receptor, human, UniProt P07307-3 61-287, looked up)
chain: QSAQLQAELRSLKEAFSNFSSSTLTEVQAISTHGGSVGDKITSLGAKLEKQQQDLKADHDALLFHLKHFPVDLRFVACQMELLHSNGSQRTCCPVNWVEHQGSCYWFSHSGKAWAEAEKYCQLENAHLVVINSWEEQKFIVQHTNPFNTWIGLTDSDGSWKWVDGTDYRHNYKNWAVTQPDNWHGHELGGSEDCVEVQPDGRWNDDFCLQVYRWVCEKRRNATGEVA
B1 was tested, and the binding was “binds”.
